Experimental data: PubChem BioAssay AID493014 (National Center for Advancing Translational Sciences (NCATS), 2011)
Screen size: about 340,000 compounds; about 170 (0.05%) were called active. Inconclusive results, whose numbers are uncertain, are shown with a selection of clear calls. Calls follow the shape of the dose curve; as a rule, active = well fitted inhibition curve with a large enough effect in the signal ratio, with a control signal flat (not every such curve was filed as active); inconclusive = small, poorly fitted or top-dose-only effect, or effect the other way, or a change in a side signal; inactive = flat fitted curve, though single readings scatter; the % refers to the signal ratio. A potency beside an inconclusive call is a rough fit, not a confirmed value.
Potency is read from the fitted curve at half-maximal effect.

Assay: qHTS Assay to Find Inhibitors of Chronic Active B-Cell Receptor Signaling;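 as to activity change, negative = inhibition: plate controls were basal doxycycline-induced cells for no effect and cells given 10 µM MG132 for full effect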
Details: ABC-DLBCL IkBa-CBG/CBR reporter, luminescence ratio (green luciferase fused to IkBa over red control in TMD8 lymphoma cells), 4 h; activity change, negative = inhibition: at 46.1 µM (top of the series) unless noted
Method in brief: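 Compounds up to 46 uM were incubated four hours with TMD8 cells whose green CBG68 luciferase is fused to IkappaBalpha; red CBR luminescence normalised the signal, and concentration-effect curves were fitted to fusion, red and ratio data.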
With CNC(=S)N1N=C(c2ccc(OC)cc2)CC1c1ccc(Cl)cc1Cl (configuration not stated) the activity change, negative = inhibition was inconclusive: 20.2%. For CCC/C(=N\NC(=O)c1csc(C)c1C)c1cccs1, the Potency was inconclusive: 29.1 µM [falling, single point]. For CC(C)n1c(=O)n(CC(=O)NCC2CCCO2)c(=O)c2c3c(sc21)COC(C)(C)C3 (configuration not stated), the activity change, negative = inhibition was inconclusive: 5.46%. With CC(C)(C)c1ccc(-c2n[nH]c(=S)n2CC2CCCO2)cc1 (configuration not stated) the “activity change, negative = inhibition” value was inactive: -8.76%. In the case of COc1ccc(C(=O)OCC(=O)c2ccc3[nH]c(=O)[nH]c3c2)c(OC)c1OC, the activity change, negative = inhibition is reported as inconclusive: -3.18%. For CCc1ccccc1NC(=O)c1cccc(NC(=O)/C=C/c2ccco2)c1, the activity change, negative = inhibition was inconclusive: 12.8%. For N=c1c2cn[nH]c2nc(SCC(=O)c2ccc(Br)cc2)n1-c1ccc(Br)cc1, the activity change, negative = inhibition was inconclusive: -4.85%. For Cc1cc(C)cc(-n2ncc3c2CCCC3NC(=O)c2ccccc2N2CCOCC2)c1 (configuration not stated), the “activity change, negative = inhibition” value was inactive: -9.3%. With COc1cccc(CNS(=O)(=O)c2ccc3c(c2)N(C(C)=O)CCO3)c1 the “activity change, negative = inhibition” value was inactive: 7.77%. For CCCCn1nc(C(=O)NCC(c2cccs2)N2CCOCC2)c2ccccc2c1=O (configuration not stated), the activity change, negative = inhibition was inconclusive: 14.4%. In the case of NC(=O)CSc1c[nH]c2ccccc12, the activity change, negative = inhibition is reported as inconclusive: -11.2%. With COC(=O)c1cccc(Cn2nnc3ccccc3c2=O)c1 the Potency was inconclusive: 10.3 µM [falling, partial curve, poor fit]. For CCC(C)/C(C)=N/NC(=O)c1ccccc1OCCOc1ccccc1 (configuration not stated), the Potency was inconclusive: 11.2 µM [falling, partial curve]. With Fc1ccccc1N1CCN(Cc2nc(-c3ccccc3)no2)CC1 the activity change, negative = inhibition was inconclusive: 5.53%. For CCOC(=O)Cc1nnc(NC(=O)CC)s1, the Potency was inconclusive: 2.31 µM [falling, full curve]. In the case of CCN1C(=O)[C@@H]2[C@@H](c3ccc(-c4ccccc4)cc3)N3CCCC[C@@]3(C(=O)OC)[C@@H]2C1=O, the “activity change, negative = inhibition” value is reported as inactive: -13.7%. With COc1cc(C(=O)NCC(=O)OCC(=O)Nc2nnc(-c3ccccc3)o2)cc(OC)c1OC the Potency was inconclusive: 20.6 µM [falling, single point]. With Cc1cc(C(=O)N2CCN(c3ncccn3)CC2)cs1 the “activity change, negative = inhibition” value was inactive: 0.856%. For CC(C)Cn1c(C(C)C)nc([N+](=O)[O-])c1Sc1ccc(Cl)cn1, the Potency was inconclusive: 8.2 µM [falling, partial curve, poor fit]. With COc1cc(-c2nnc(-c3cccs3)o2)cc(OC)c1OC the activity change, negative = inhibition was inconclusive: 15.7%. For CCc1ccc(NC(=O)CSc2nc3c(sc4ccccc43)c(=O)n2CCN(CC)CC)cc1, the “activity change, negative = inhibition” value was inactive: 4.64%. In the case of COC1=C(Nc2ccccc2OC)C(=O)c2ccccc2C1=O, the Potency is reported as inconclusive: 22.4 µM [falling, single point]. For COc1cc(C)ccc1OCCCOc1c(Cl)cccc1Cl, the activity change, negative = inhibition was inconclusive: 7.68%. In the case of O=C(c1cnn(-c2ccc(Cl)cc2)c1)c1ccccc1O, the Potency is reported as inconclusive: 35.5 µM [rising, single point]. For CC(=O)C1=C(O)C(=O)N(CCc2c[nH]c3ccccc23)C1c1cccc(O)c1 (configuration not stated), the activity change, negative = inhibition was inconclusive: -1.61%. With COc1ccccc1N1CCN(CC(O)COCCOc2ccc(Br)cc2)CC1 (configuration not stated) the activity change, negative = inhibition was inconclusive: -8.87%. With COc1cc([C@@H]2c3cc4c(cc3[C@@H](O)[C@H]3COC(=O)[C@H]23)OCO4)cc(OC)c1O[Si](C)(C)C(C)(C)C the Potency was inconclusive: 12.6 µM [falling, partial curve]. For Fc1ccc(C2=NNC(=NCc3ccccc3)SC2)cc1F, the Potency was inconclusive: 35.5 µM [falling, partial curve]. For COc1ccc(CCNC(=O)c2ccc(-c3ccc([N+](=O)[O-])cc3Cl)o2)cc1OC, the activity change, negative = inhibition was inconclusive: 1.41%. For O=C(/C=C/c1ccccc1[N+](=O)[O-])NCCN1C(=O)S/C(=C\c2ccc(F)cc2)C1=O, the activity change, negative = inhibition was inconclusive: 3.5%. In the case of CCC(=O)c1cccc2c1N=CC1=C(CC(C)(C)CC1=O)N2, the activity change, negative = inhibition is reported as inconclusive: -1.54%. With COc1cccc(OC)c1C(=O)Nc1cccc(NC(=O)c2cccs2)c1 the “activity change, negative = inhibition” value was inactive: -7.15%. With Cc1nnc(SCC(N)=O)n1CCc1ccccc1 the activity change, negative = inhibition was inconclusive: 2.51%. With CCC(C)NC(=O)CSc1nnc(-c2ccc(C)cc2)c(-c2ccc(C)cc2)n1 (configuration not stated) the “activity change, negative = inhibition” value was inactive: 10.5%. For Cc1ccccc1Nc1ccc2nonc2c1[N+](=O)[O-], the activity change, negative = inhibition was inconclusive: 0.31%. In the case of CC(C)C(=O)NC(c1cccs1)c1cc([N+](=O)[O-])c2cccnc2c1O (configuration not stated), the “activity change, negative = inhibition” value is reported as inactive: 6.04%. With Cc1cc(C(=O)Nc2cc(C(C)(C)C)on2)c(C)o1 the activity change, negative = inhibition was inconclusive: -24.8%. With OCCC1CN(Cc2ccc3cccc(F)c3n2)CCN1Cc1ccccc1 (configuration not stated) the “activity change, negative = inhibition” value was inactive: 1.23%. For CCOc1cccc(C(=O)Nc2cccc(-c3nc4ncccc4o3)c2C)c1, the Potency was inconclusive: 2.91 µM [rising, full curve, poor fit]. For CCOc1ccc(N=C/C=C/c2ccccc2)c(O)c1, the activity change, negative = inhibition was inconclusive: 22%. In the case of COC(=O)CCC(NC(=O)c1cc(C)oc1C)C(=O)OC (configuration not stated), the activity change, negative = inhibition is reported as inconclusive: 14.5%. For O=C(Nc1ccccc1)c1ccccc1NS(=O)(=O)c1ccc(Cl)s1, the “activity change, negative = inhibition” value was inactive: 14.8%. For CCOC(=O)C1=C(c2ccccc2)N=C2SCC(=O)N2C1c1cccc(OC)c1 (configuration not stated), the activity change, negative = inhibition was inconclusive: 9.05%. In the case of Oc1c(Cl)cc(Cl)cc1/C=N/Nc1ncc(Br)cn1, the activity change, negative = inhibition is reported as inconclusive: 4.9%. For C[N+](C)(C)c1ccc(/C=N/Nc2nc(Cl)c(C#N)c(Cl)c2Cl)cc1, the activity change, negative = inhibition was inconclusive: 6.33%. With Fc1ccc(-c2ccc(CNCc3ccccn3)o2)cc1Cl the activity change, negative = inhibition was inconclusive: 2.96%. With C/C(=N\Nc1cc(C(F)(F)F)ccc1Cl)c1ccncc1 the Potency was inconclusive: 5.62 µM [falling, full curve]. With COc1ccc(C2C(=O)N(C3CCCCCC3)CC(=O)N2Cc2ccccc2)cc1 (configuration not stated) the “activity change, negative = inhibition” value was inactive: -4.75%. For Cn1nnnc1SCC(=O)Nc1ccccn1, the activity change, negative = inhibition was inconclusive: 13.4%. For OC(COc1ccc2ccccc2c1Br)Cn1cnc(-c2ccccc2)c1 (configuration not stated), the Potency was inconclusive: 7.31 µM [falling, partial curve]. With CCOC(=O)c1snc(-c2ccc(F)cc2)c1N the activity change, negative = inhibition was inconclusive: 4.79%. In the case of O=C(CNC(=O)c1cccc(Cl)c1)Nc1ccc(F)c(F)c1F, the activity change, negative = inhibition is reported as inconclusive: 4.75%. In the case of Clc1ccc(OCc2nc(-c3ccccn3)n[nH]2)cc1, the Potency is reported as inconclusive: 20.6 µM [falling, partial curve]. In the case of COc1cccc(C(=O)Nc2ccc(NC(=O)C3C4C=CC(C4)C3C(=O)O)cc2)c1 (configuration not stated), the Potency is reported as inconclusive: 2.24 µM [falling, partial curve, poor fit]. In the case of O=C(NCCN1CCOCC1)c1ccc2c(c1)N(Cc1ccccc1F)C(=O)CS2, the “activity change, negative = inhibition” value is reported as inactive: -1.51%. With CCOC(=O)c1sc(-c2ccccc2)cc1N the activity change, negative = inhibition was inconclusive: 8.22%. In the case of COc1ccc(CCN(C)C(=O)c2cc(=O)c3ccccc3o2)cc1OC, the activity change, negative = inhibition is reported as inconclusive: 3.76%. With CCc1noc(C)c1C(=O)N(CC)CC(=O)Nc1cc(Cl)ccc1C the activity change, negative = inhibition was inconclusive: 2.4%. For CCn1c(O)c(N=Nc2ccc(Cl)c(C(=O)O)c2)c2ccccc21, the Potency was inconclusive: 22.4 µM [falling, partial curve]. For CCOC(=O)c1ccc(NC(=O)CS(=O)(=O)c2cn(CC)c3ccccc23)cc1, the activity change, negative = inhibition was inconclusive: -27.3%. In the case of O=C(CNc1ccccc1)Nc1cccc2ccccc12, the Potency is reported as inconclusive: 1.26 µM [falling, full curve]. With CCc1ccc(-c2cn3nc(C)c(C)nc3n2)cc1 the Potency was inconclusive: 15.8 µM [falling, partial curve]. For COc1cccc(/C=N/NC(=O)c2ccoc2C)c1, the Potency was inconclusive: 31.6 µM [rising, partial curve]. In the case of CC(C)N1CC=C2C(C#N)=C(N)C(C#N)(C#N)C(c3ccccc3)C2C1 (configuration not stated), the “activity change, negative = inhibition” value is reported as inactive: 13.5%. With O=C(O)C1CCCC[C@H]1C(=O)Nc1ncc([N+](=O)[O-])s1 (some centres not stated) the activity change, negative = inhibition was inconclusive: 22.5%. For CC(C)(Oc1ccc(Br)cc1Cl)C(=O)Nc1ccon1, the activity change, negative = inhibition was inconclusive: 3.51%. For O=C(CSc1nnnn1Cc1ccccc1)Nc1ccc2c(c1)OCO2, the activity change, negative = inhibition was inconclusive: 3.22%. With CCc1cccc(C)c1NC(=O)c1nc2ccccc2nc1N1CCCCC1 the “activity change, negative = inhibition” value was inactive: 15.6%. For O=C(Nc1ccc(F)c(Cl)c1)N1CCCC1, the Potency was inconclusive: 35.5 µM [falling, single point]. In the case of Cc1ccc(-c2nn3c(C)nnc3s2)cc1N, the “activity change, negative = inhibition” value is reported as inactive: -5.54%. In the case of Cc1ccc(C(=O)O)cc1NC(=S)NC(=O)C(c1ccccc1)c1ccccc1, the Potency is reported as inconclusive: 15.8 µM [falling, partial curve, poor fit]. With Cc1n[nH]c(C)c1NC(=O)c1cc([N+](=O)[O-])ccc1Cl the activity change, negative = inhibition was inconclusive: 19.1%. With O=C(Nc1ccccc1C(=O)NCc1cccnc1)c1ccccc1F the “activity change, negative = inhibition” value was inactive: 4.17%. For COc1cc(NC(N)=S)c(OC)cc1Cl, the “activity change, negative = inhibition” value was inactive: -15.6%. In the case of Cc1ccc(C(=O)N2CCN=C2SCc2ccc([N+](=O)[O-])cc2)cc1, the activity change, negative = inhibition is reported as inconclusive: -10.3%. In the case of CCOC(=O)CN(C(=O)CNC(=O)c1cccs1)C(C(=O)NC1CCCC1)c1cccnc1 (configuration not stated), the Potency is reported as inconclusive: 29.1 µM [rising, single point]. With CC(C)C1Cc2[nH]c(=O)c(C(=O)O)cc2CO1 (configuration not stated) the “activity change, negative = inhibition” value was inactive: 6.84%. For O=c1[nH]c(C2CCN(S(=O)(=O)c3ccc4c(c3)OCCO4)CC2)nc2c1nnn2Cc1ccc(F)cc1, the activity change, negative = inhibition was inconclusive: -3.7%. For COc1cc(-c2cc(C(=O)Nc3ccccc3N3CCOCC3)c3ccccc3n2)cc(OC)c1OC, the activity change, negative = inhibition was inconclusive: -3.59%. With Cn1c(CCN2CCCCC2)nc2cc(NC(=O)Nc3ccccc3)ccc21 the activity change, negative = inhibition was inconclusive: -3.15%. For COc1ccc(C2CC(=O)c3c([nH]c(C(=O)OC(C)C)c3C)C2)cc1OC (configuration not stated), the activity change, negative = inhibition was inconclusive: -4.71%. For CCOC(=O)N1CCN(C(=O)Cc2ccc(Cl)cc2)CC1, the “activity change, negative = inhibition” value was inactive: 0.848%.
